The text below walks through data of US20160053248A1, “SYSTEMS AND METHODS FOR EVOLVING ENZYMES WITH DESIRED ACTIVITIES” (Potomac Affinity Proteins, LLC, priority 2009, published 2016).

These are yes or no findings as the source states them, for the method shown. Some entries that bind do so weakly or less than the wild type.

The target in the experiment is T1, subtilisin variant SBT189 (Bacillus amyloliquefaciens (Bacillus velezensis)) (UniProt P00782).
T1 sequence: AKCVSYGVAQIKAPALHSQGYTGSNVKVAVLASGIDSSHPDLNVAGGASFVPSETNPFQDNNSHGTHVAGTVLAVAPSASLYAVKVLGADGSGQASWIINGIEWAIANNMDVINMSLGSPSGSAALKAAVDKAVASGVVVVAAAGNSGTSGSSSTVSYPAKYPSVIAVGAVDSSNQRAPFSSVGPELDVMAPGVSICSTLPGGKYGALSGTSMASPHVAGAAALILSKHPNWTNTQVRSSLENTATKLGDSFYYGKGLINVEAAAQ
The experiment in a line: complex formed at 100 µM for the activation cascade.

B1: prodomain variant pS156 (protein)
chain: AGKSNGEKKYIVGFKQTMSTMSAAKKKDVISEKGGKVQKQFKYVDAASATLNEKAVKELKKDPSVAYVEEDHVFKAY
On to B1, for which the binding result is “binds”.
